No constants are given. Whether binding was seen depends on the method and setting. Binding seen in cells or lysates may run through a third protein. Here binding means that the protein was enriched with, or labelled near, the bait; the list need not be complete. No binding means not detected with the bait.

The chains behind the UniProt entries cited, without tags or fusion partners.
UniProt P63141: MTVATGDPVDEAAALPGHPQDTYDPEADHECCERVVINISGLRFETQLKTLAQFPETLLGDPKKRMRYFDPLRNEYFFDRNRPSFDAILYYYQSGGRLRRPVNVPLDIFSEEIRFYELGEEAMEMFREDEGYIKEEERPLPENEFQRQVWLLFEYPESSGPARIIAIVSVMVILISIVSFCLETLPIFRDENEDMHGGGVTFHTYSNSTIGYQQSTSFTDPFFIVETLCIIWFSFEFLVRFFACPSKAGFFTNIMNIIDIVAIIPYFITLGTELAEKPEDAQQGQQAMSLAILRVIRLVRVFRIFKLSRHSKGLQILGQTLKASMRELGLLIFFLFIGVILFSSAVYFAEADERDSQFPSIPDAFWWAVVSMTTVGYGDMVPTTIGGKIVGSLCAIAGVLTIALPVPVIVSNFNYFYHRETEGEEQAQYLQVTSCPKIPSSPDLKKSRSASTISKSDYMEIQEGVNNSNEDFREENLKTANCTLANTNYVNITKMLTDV

The labels stand for the following.
B1: 14-3-3 γ (protein, UniProt P61982 1-247)
chain: MVDREQLVQKARLAEQAERYDDMAAAMKNVTELNEPLSNEERNLLSVAYKNVVGARRSSWRVISSIEQKTSADGNEKKIEMVRAYREKIEKELEAVCQDVLSLLDNYLIKNCSETQYESKVFYLKMKGDYYRYLAEVATGEKRATVVESSEKAYSEAHEISKEHMQPTHPIRLGLALNYSVFYYEIQNAPEQACHLAKTAFDDAIAELDTLNEDSYKDSTLIMQLLRDNLTLWTSDQQDDDGGEGNN
B2: SERA (enzyme, UniProt Q61753 1-533)
chain: MAFANLRKVLISDSLDPCCRKILQDGGLQVVEKQNLSKEELIAELQDCEGLIVRSATKVTADVINAAEKLQVVGRAGTGVDNVDLEAATRKGILVMNTPNGNSLSAAELTCGMIMCLARQIPQATASMKDGKWDRKKFMGTELNGKTLGILGLGRIGREVATRMQSFGMKTVGYDPIISPEVAASFGVQQLPLEEIWPLCDFITVHTPLLPSTTGLLNDSTFAQCKKGVRVVNCARGGIVDEGALLRALQSGQCAGAALDVFTEEPPRDRALVDHENVISCPHLGASTKEAQSRCGEEIAVQFVDMVKGKSLTGVVNAQALTSAFSPHTKPWIGLAEAMGTLMHAWAGSPKGTIQVVTQGTSLKNAGTCLSPAVIVGLLREASKQADVNLVNAKLLVKEAGLNVTTSHNPGVPGEQGSGECLLTVALAGAPYQAVGLVQGTTPMLQMLNGAVFRPEVPLRRGQPLLVFRAQPSDPGMLPTMIGLLAEAGVQLLSYQTSMVSDGEPWHVMGLSSLLPSLETWKQHVLEAFQFCF
B3: septin 6 (protein, UniProt Q9R1T4 1-434)
chain: MAAADIARQVGEDCRTVPLAGHVGFDSLPDQLVNKSVSQGFCFNILCVGETGLGKSTLMDTLFNTKFEGEPATHTQPGVQLQSNTYDLQESNVGLKLTIVSTVGFGDQINKEDSYKPIVEFIDAQFEAYLQEELKIRRVLHSYHDSRIHVCLYFIAPTGHSLKSLDLVTMKKLDSKVNIIPVIAKSDAISKSELAKFKIKITSELVSNGVQIYQFPTDDESVSEINGTMNAHLPFAVVGSTEEVKIGNKMMRARQYPWGTVQVENEAHCDFVKLREMLIRVNMEDLREQTHARHYELYRRCKLEEMGFKDTDPDSKPFSLQETYEAKRNEFLGELQKKEEEMRQMFVQRVKEKEAELKEAEKELHEKFDRLKKLHQEEKKKLEDKKKCLDEEMNAFKQRKAAAELLQSQGSQAGGSQTLKRDKEKKNNPWLCIE
B4: contactin 1 (protein, UniProt P12960 21-1001)
chain: DFTWHRRYGHGVSEEDKGFGPIFEEQPINTIYPEESLEGKVSLNCRARASPFPVYKWRMNNGDVDLTNDRYSMVGGNLVINNPDKQKDAGVYYCLASNNYGMVRSTEATLSFGYLDPFPPEERPEVKVKEGKGMVLLCDPPYHFPDDLSYRWLLNEFPVFITMDKRRFVSQTNGNLYIANVESSDRGNYSCFVSSPSITKSVFSKFIPLIPIPERTTKPYPADIVVQFKDIYTMMGQNVTLECFALGNPVPDIRWRKVLEPMPSTAEISTSGAVLKIFNIQLEDEGLYECEAENIRGKDKHQARIYVQAFPEWVEHINDTEVDIGSDLYWPCIATGKPIPTIRWLKNGYSYHKGELRLYDVTFENAGMYQCIAENAYGSIYANAELKILALAPTFEMNPMKKKILAAKGGRVIIECKPKAAPKPKFSWSKGTEWLVNSSRILIWEDGSLEINNITRNDGGIYTCFAENNRGKANSTGTLVITNPTRIILAPINADITVGENATMQCAASFDPALDLTFVWSFNGYVIDFNKEITHIHYQRNFMLDANGELLIRNAQLKHAGRYTCTAQTIVDNSSASADLVVRGPPGPPGGLRIEDIRATSVALTWSRGSDNHSPISKYTIQTKTILSDDWKDAKTDPPIIEGNMESAKAVDLIPWMEYEFRVVATNTLGTGEPSIPSNRIKTDGAAPNVAPSDVGGGGGTNRELTITWAPLSREYHYGNNFGYIVAFKPFDGEEWKKVTVTNPDTGRYVHKDETMTPSTAFQVKVKAFNNKGDGPYSLVAVINSAQDAPSEAPTEVGVKVLSSSEISVHWKHVLEKIVESYQIRYWAGHDKEAAAHRVQVTSQEYSARLENLLPDTQYFIEVGACNSAGCGPSSDVIETFTRKAPPSQPPRIISSVRSGSRYIITWDHVVALSNESTVTGYKILYRPDGQHDGKLFSTHKHSIEVPIPRDGEYVVEVRAHSDGGDGVVSQVKISGVSTLS
B5: VAPA (protein, UniProt Q9WV55 1-249)
chain: MASASGAMAKHEQILVLDPPSDLKFKGPFTDVVTTNLKLQNPSDRKVCFKVKTTAPRRYCVRPNSGIIDPGSIVTVSVMLQPFDYDPNEKSKHKFMVQTIFAPPNISDMEAVWKEAKPDELMDSKLRCVFEMPNENDKLNDMEPSKAVPLNASKQDGPLPKPHSVSLNDTETRKLMEECKRLQGEMMKLSEENRHLRDEGLRLRKVAHSDKPGSTSAVSFRDNVTSPLPSLLVVIAAIFIGFFLGKFIL
B6: dynamin 3 (protein, UniProt Q8BZ98 1-863)
chain: MGNREMEELIPLVNRLQDAFSALGQSCLLELPQIAVVGGQSAGKSSVLENFVGRDFLPRGSGIVTRRPLVLQLVTSKAEYAEFLHCKGKKFTDFDEVRHEIEAETDRVTGMNKGISSIPINLRVYSPHVLNLTLIDLPGITKVPVGDQPPDIEYQIRDMIMQFITRENCLILAVTPANTDLANSDALKLAKEVDPQGLRTIGVITKLDLMDEGTDARDVLENKLLPLRRGYVGVVNRSQKDIDGKKDIKAAMLAERKFFLSHPAYRHIADRMGTPHLQKVLNQQLTNHIRDTLPNFRNKLQGQLLSIEHEVEAFKNFKPEDPTRKTKALLQMVQQFAVDFEKRIEGSGDQVDTLELSGGAKINRIFHERFPFEIVKMEFNEKELRREISYAIKNIHGIRTGLFTPDMAFEAIVKKQIVKLKGPSLKSVDLVMQELINTVKKCTKRLANFPRLCEETERIVANHIREREGKTKDQVLLLIDIQVSYINTNHEDFIGFANAQQRSSQVHKKSTIGNQVIRKGWLTVSNIGIMKGGSKGYWFVLTAESLSWYKDDEEKEKKYMLPLDNLKVRDVEKGFMSSKHVFALFNTEQRNVYKDYRFLELACDSQEDVDSWKASLLRAGVYPDKSVGSNKTENDENGQAENFSMDPQLERQVETIRNLVDSYMSIINKCIRDLIPKTIMHLMINNVKDFINSELLAQLYSSEDQNTLMEESAEQAQRRDEMLRMYQALKEALAIIGDINTATVSTPAPPPVDDSWLQHSRRSPPPSPTTQRRLTISAPLPRPTSGRGPAPAIPSPGPHSGAPPVPFRPGPLPPFPNSSDSFGAPPQVPSRPTRAPPSVPSRRPPPSPTRPTIIRPLESSLLD
B7: ASTRB (protein, UniProt Q80TI0 1-738)
chain: MKGFKLSCTASNSNRSTPACSPILRKRSRSPTPQNQDGDTMVEKGSDHSSDKSPSTPEQGVQRSCSSQSGRSGGKNSKKSQSWYNVLSPTYKQRNEDFRKLFKQLPDTERLIVDYSCALQRDILLQGRLYLSENWICFYSNIFRWETLLTVRLKDICSMTKEKTARLIPNAIQVCTDSEKHFFTSFGARDRTYMMMFRLWQNALLEKPLCPKELWHFVHQCYGNELGLTSDDEDYVPPDDDFNTMGYCEEIPIEENEVNDSSSKSSIETKPDASPQLPKKSITNSTLTSTGSSEAPVSFDGLPLEEEVMEGDGSLEKELAIDNIIGEKIEIMAPVTSPSLDFNDNEDIPTELSDSSDTHDEGEVQAFYEDLSGRQYVNEVFNFSVDKLYDLLFTNSPFLRDFMEQRRFSDIIFHPWKKEENGNQSRVILYTITLTNPLAPKTATVRETQTMYKASQESECYVIDAEVLTHDVPYHDYFYTINRYTLTRVARNKSRLRVSTELRYRKQPWGFVKTFIEKNFWSGLEDYFRHLETELTKTESTYLAEIHRQSPKEKASKSSAVRRRKRPHAHLRVPHLEEVMSPVTTPTDEDVGHRIKHVAGSTQTRHIPEDTPDGFHLQSVSKLLLVISCVICFSLVLLVVLNMMLFYKLWMLEYTTQTLTAWQGLRLQERLPQSQTEWAQLLESQQKYHDTELQKWREIIKSSVLLLDQMKDSLINLQNGIRSRDYTAESDEKRNRYH
B8: DLG3 (protein, UniProt P70175 1-849)
chain: MHKHQHCCKCPECYEVTRLAALRRLEPPGYGDWQVPDPYGPSGGNGASSGYGGYSSQTLPSQAGATPTPRTKAKLIPTGRDVGPVPPKPVPGKSTPKLNGSGPGWWPECTCTNRDWYEQASPAPLLVNPEALEPSLSVNGSDGMFKYEEIVLERGNSGLGFSIAGGIDNPHVPDDPGIFITKIIPGGAAAMDGRLGVNDCVLRVNEVDVSEVVHSRAVEALKEAGPVVRLVVRRRQPPPETIMEVNLLKGPKGLGFSIAGGIGNQHIPGDNSIYITKIIEGGAAQKDGRLQIGDRLLAVNNTNLQDVRHEEAVASLKNTSDMVYLKVAKPGSIHLNDMYAPPDYASTFTALADNHISHNSSLGYLGAVESKVTYPAPPQVPPTRYSPIPRHMLAEEDFTREPRKIILHKGSTGLGFNIVGGEDGEGIFVSFILAGGPADLSGELRRGDRILSVNGVNLRNATHEQAAAALKRAGQSVTIVAQYRPEEYSRFESKIHDLREQMMNSSMSSGSGSLRTSEKRSLYVRALFDYDRTRDSCLPSQGLSFSYGDILHVINASDDEWWQARLVTPHGESEQIGVIPSKKRVEKKERARLKTVKFHARTGMIESNRDFPGLSDDYYGAKNLKGVTSNTSDSESSSKGQEDAILSYEPVTRQEIHYARPVIILGPMKDRVNDDLISEFPHKFGSCVPHTTRPRRDNEVDGQDYHFVVSREQMEKDIQDNKFIEAGQFNDNLYGTSIQSVRAVAERGKHCILDVSGNAIKRLQQAQLYPIAIFIKPKSIEALMEMNRRQTYEQANKIFDKAMKLEQEFGEYFTAIVQGDSLEEIYNKIKQIIEDQSGHYIWVPSPEKL
B9: septin 7 (protein, UniProt O55131 1-436)
chain: MSVSARSAAAEERSVNCGTMAQPKNLEGYVGFANLPNQVYRKSVKRGFEFTLMVVGESGLGKSTLINSLFLTDLYSPEYPGPSHRIKKTVQVEQSKVLIKEGGVQLLLTIVDTPGFGDAVDNSNCWQPVIDYIDSKFEDYLNAESRVNRRQMPDNRVQCCLYFIAPSGHGLKPLDIEFMKRLHEKVNIIPLIAKADTLTPEECQQFKKQIMKEIQEHKIKIYEFPETDDEEENKLVKKIKDRLPLAVVGSNTIIEVNGKRVRGRQYPWGVAEVENGEHCDFTILRNMLIRTHMQDLKDVTNNVHYENYRSRKLAAVTYNGVDNNKNKGQLTKSPLAQMEEERREHVAKMKKMEMEMEQVFEMKVKEKVQKLKDSEAELQRRHEQMKKNLEAQHKELEEKRRQFEEEKANWEAQQRILEQQNSSRTLEKNKKKGKIF

The target of this assay is phosphoY458 Kv1.2 (mouse) (UniProt P63141). In words: affinity purification with mass spectrometry.
On to B1, for which the binding result was “no binding”. As for B2, the binding result was “binds”. The value for B3 was “no binding”.

For the molecule B4, the binding entry is given as “binds”. Then B5, with “binds”; and B6, with “no binding”. The value for B7 was “binds”. As for B8, the binding entry was “no binding”. For B9, the binding entry is “no binding”.
